Assay: Chemiresistor response towards analytes in water, direct current (DC) measurement
Details: dc 100 mV

Compound | chemiresistor response, % change in current (analyte 0.1 ppm in water) | chemiresistor response, % change in current (analyte 0.2 ppm in water) | chemiresistor response, % change in current (analyte 0.5 ppm in water) | chemiresistor response, % change in current (analyte 1 ppm in water) | chemiresistor response, % change in current (analyte 2 ppm in water) | chemiresistor response, % change in current (analyte 5 ppm in water) | chemiresistor response, % change in current (analyte 10 ppm in water) | chemiresistor response, % change in current (analyte 2000 ppm in water) | chemiresistor response, % change in current (analyte 5000 ppm in water) | chemiresistor response, % change in current (analyte 10000 ppm in water) | chemiresistor response, % change in current (analyte 20000 ppm in water) | chemiresistor response, % change in current (analyte 20 ppm in water)
Cc1ccccc1 [toluene] | 0.14% | 0.22% | 0.29% | 0.43% | 0.87% | 1.88% | 3.43% |  |  |  |  | 
CCCO [1-propanol] |  |  |  |  |  |  |  | 0.49% | 1.06% | 1.90% | 3.83% | 
Clc1cccc(Cl)c1 [m-dichlorobenzene] | 0.23% | 0.37% | 0.69% | 1.18% | 2.36% | 5.63% | 10.19% |  |  |  |  | 
O=[N+]([O-])c1ccccc1 [nitrobenzene] |  |  |  |  | 0.18% | 0.30% | 0.52% |  |  |  |  | 0.93%
